Experimental data reported in patent US20130059292A1 (APTAMER SCIENCES, published 2013).
No constants are given. Whether binding was seen depends on the method and setting. Some binding calls cover weakened binding; strength is not graded here.

Amino acid sequences for entries named in this document (tags omitted). A change or cut given only in a name is not applied to a line headed by its entry.
UniProt P06213: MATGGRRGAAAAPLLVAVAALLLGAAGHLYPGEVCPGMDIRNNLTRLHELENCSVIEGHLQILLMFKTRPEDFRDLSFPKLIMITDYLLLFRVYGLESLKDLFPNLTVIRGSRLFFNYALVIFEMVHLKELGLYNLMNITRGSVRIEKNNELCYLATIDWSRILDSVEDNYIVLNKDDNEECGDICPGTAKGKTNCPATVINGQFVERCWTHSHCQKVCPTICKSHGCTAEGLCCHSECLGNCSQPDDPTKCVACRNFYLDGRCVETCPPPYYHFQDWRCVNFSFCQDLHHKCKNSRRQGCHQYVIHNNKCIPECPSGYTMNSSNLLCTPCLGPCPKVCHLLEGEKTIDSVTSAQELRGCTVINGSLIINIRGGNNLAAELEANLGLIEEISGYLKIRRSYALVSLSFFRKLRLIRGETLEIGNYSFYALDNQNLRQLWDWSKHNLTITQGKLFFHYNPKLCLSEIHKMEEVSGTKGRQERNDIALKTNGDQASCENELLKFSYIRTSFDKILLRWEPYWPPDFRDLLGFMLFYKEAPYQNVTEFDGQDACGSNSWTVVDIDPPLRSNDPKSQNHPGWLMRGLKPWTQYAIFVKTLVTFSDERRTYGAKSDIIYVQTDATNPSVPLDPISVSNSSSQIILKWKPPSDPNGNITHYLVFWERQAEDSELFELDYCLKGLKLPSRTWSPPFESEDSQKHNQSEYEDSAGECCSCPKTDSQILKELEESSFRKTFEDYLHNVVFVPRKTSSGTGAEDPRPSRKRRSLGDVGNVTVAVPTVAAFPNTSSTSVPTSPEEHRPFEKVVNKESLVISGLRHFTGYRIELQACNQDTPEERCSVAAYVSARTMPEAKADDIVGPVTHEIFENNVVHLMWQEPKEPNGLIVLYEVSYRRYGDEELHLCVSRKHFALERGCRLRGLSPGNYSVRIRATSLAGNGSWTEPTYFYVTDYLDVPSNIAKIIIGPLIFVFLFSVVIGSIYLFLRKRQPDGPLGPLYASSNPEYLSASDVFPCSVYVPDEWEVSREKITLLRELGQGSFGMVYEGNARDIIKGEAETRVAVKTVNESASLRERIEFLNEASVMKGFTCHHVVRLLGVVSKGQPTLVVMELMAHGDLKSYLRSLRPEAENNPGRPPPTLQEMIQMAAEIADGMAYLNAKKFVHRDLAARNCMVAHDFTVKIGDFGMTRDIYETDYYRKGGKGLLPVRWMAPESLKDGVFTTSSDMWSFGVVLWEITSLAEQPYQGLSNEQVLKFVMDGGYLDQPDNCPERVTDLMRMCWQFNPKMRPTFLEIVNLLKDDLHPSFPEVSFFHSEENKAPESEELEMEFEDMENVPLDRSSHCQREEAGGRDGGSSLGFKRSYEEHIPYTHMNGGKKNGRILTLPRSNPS
UniProt P31751: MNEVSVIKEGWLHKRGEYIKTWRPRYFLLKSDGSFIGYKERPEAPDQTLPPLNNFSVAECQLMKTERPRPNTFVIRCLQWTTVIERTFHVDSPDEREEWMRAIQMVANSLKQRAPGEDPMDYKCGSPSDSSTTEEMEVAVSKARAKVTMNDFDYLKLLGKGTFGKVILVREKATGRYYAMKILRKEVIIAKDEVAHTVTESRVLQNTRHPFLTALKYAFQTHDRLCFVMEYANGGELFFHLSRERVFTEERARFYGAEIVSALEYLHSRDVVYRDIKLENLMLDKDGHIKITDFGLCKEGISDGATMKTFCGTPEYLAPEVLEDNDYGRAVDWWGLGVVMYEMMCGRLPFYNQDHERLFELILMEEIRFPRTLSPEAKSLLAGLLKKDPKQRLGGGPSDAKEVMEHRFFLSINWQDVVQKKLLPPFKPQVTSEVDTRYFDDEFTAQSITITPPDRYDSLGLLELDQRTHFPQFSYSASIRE
UniProt P47197: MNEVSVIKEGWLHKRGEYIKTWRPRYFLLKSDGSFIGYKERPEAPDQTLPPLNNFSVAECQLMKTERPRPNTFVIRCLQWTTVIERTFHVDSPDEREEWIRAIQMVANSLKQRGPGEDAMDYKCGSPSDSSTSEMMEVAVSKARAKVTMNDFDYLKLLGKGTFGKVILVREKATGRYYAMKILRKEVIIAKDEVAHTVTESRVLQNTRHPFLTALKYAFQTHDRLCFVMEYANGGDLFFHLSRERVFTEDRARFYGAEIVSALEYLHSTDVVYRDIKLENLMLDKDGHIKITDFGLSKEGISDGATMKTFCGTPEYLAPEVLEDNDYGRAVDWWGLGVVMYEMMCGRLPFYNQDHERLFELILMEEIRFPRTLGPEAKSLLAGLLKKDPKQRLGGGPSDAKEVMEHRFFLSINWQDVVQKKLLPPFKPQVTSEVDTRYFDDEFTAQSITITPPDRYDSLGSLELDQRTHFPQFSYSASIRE

Legend:
[1] = target: T1, epidermal growth factor receptor (EGFR) (human, UniProt P00533 25-1210); assay: Co-AP with EGFR aptamer beads from EGF-stimulated A431 cell extract (data not shown)
T1 construct: Endogenous protein in A431 cell lysate; also called EGF receptor

[2] = target: human insulin receptor (IR) (human) (UniProt P06213); assay: Co-AP with IR aptamer-magnetic agarose beads from insulin-stimulated Rat-1/IR cell lysate, Western blot
[3] = target: AKT2 (human) (UniProt P31751); assay: Co-AP with AKT2 aptamer-magnetic agarose beads from insulin-stimulated MCF7 cell lysate, Western blot

**Q.** Which binding [1] does the source give for “AKT2 (from UniProt P31751 1-481) (enzyme)” here?
**A.** The binding was “binds”.

**Q.** With “Akt2 (in Rat-1/IR cells) (from UniProt P47197 1-481) (enzyme)” as the molecule, how does the binding [2] read?
**A.** Its binding is “binds”.

B1: PDK1 (enzyme, human, UniProt O15530 1-556, looked up)
chain: MARTTSQLYDAVPIQSSVVLCSCPSPSMVRTQTESSTPPGIPGGSRQGPAMDGTAAEPRPGAGSLQHAQPPPQPRKKRPEDFKFGKILGEGSFSTVVLARELATSREYAIKILEKRHIIKENKVPYVTRERDVMSRLDHPFFVKLYFTFQDDEKLYFGLSYAKNGELLKYIRKIGSFDETCTRFYTAEIVSALEYLHGKGIIHRDLKPENILLNEDMHIQITDFGTAKVLSPESKQARANSFVGTAQYVSPELLTEKSACKSSDLWALGCIIYQLVAGLPPFRAGNEYLIFQKIIKLEYDFPEKFFPKARDLVEKLLVLDATKRLGCEEMEGYGPLKAHPFFESVTWENLHQQTPPKLTAYLPAMSEDDEDCYGNYDNLLSQFGCMQVSSSSSSHSLSASDTGLPQRSGSNIEQYIHDLDSNSFELDLQFSEDEKRLLLEKQAGGNPWHQFVENNLILKMGPVDKRKGLFARRRQLLLTEGPHLYYVDPVNKVLKGEIPWSQELRPEAKNFKTFFVHTPNRTYYLMDPSGNAHKWCRKIQEVWRQRYQSHPDAAVQ
notes: also called phosphoinositide dependent kinase 1; PDPK1
**Q.** For B1, which binding [3] is on record?
**A.** The binding was “binds”.
